Results on two molecules are retold here after paper PMC6789022.

Assay [1] concerns the target Flag_HINT1_WT, human HINT1 stably expressed in HINT1 knockdown RBL cells (human) (UniProt P49773). Briefly: native gel or EMSA; HINT1 knockdown RBL cells stably expressing Flag_HINT1, IgE and antigen stimulation, lysate, SDS-PAGE without pre-heating, anti-FLAG western blot.
Assay [2] addresses Flag_HINT1_Y109D, human HINT1 Y109D stably expressed in HINT1 knockdown RBL cells (human) (UniProt P49773). Described as above.

Results are given in words; binding and its absence hold for the method and conditions named. Some entries that bind do so weakly or less than the wild type. For some assays here: Where a sequence is shown, tags or fusion partners need not be part of it.

Consider “Flag_HINT1_WT, human HINT1 stably expressed in HINT1 knockdown RBL cells (from UniProt P49773 1-126)”, for which the binding entry in assay [1] is recorded as “binds”.

B1: Flag_HINT1_Y109D, human HINT1 Y109D stably expressed in HINT1 knockdown RBL cells (protein, UniProt P49773 1-126)
chain: MADEIAKAQVARPGGDTIFGKIIRKEIPAKIIFEDDRCLAFHDISPQAPTHFLVIPKKHISQISVAEDDDESLLGHLMIVGKKCAADLGLNKGYRMVVNEGSDGGQSVDHVHLHVLGGRQMHWPPG
As to B1, the binding entry in assay [2] is reported as “no binding”.
